Laboratory results: article PMC9598788

Amino acid sequences for entries named in this document (tags omitted). A change or cut given only in a name is not applied to a line headed by its entry.
UniProt O22229: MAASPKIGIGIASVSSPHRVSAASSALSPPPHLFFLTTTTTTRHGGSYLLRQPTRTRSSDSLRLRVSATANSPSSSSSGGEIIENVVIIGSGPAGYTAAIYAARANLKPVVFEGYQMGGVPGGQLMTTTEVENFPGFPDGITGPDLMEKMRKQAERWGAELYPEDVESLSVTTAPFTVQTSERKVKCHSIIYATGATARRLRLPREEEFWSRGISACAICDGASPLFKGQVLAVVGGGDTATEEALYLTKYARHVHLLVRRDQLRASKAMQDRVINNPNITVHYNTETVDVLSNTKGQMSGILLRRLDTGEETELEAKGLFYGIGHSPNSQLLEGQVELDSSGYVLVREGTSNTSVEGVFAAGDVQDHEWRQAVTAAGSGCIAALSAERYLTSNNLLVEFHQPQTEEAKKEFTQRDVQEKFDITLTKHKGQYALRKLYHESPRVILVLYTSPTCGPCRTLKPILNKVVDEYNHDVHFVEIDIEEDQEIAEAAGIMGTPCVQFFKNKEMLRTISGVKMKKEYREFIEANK

Target: NTRC-C457S (Arabidopsis thaliana (from the prefix At)) (UniProt O22229)
Assay: affinity purification with mass spectrometry; His-tagged monocysteinic Trx mutant overexpressed in N. benthamiana leaves (agroinfiltration, 5 days); leaf extract (20 mM sodium phosphate pH 7.4, 150 mM NaCl, 25 mM imidazole, 0.1% Triton X-100) on Ni-NTA agarose; washed with 45 mM imidazole; targets held by a mixed disulfide eluted with 20 mM DTT; LC-MS/MS; hits with Log2(fold change) > 1.8 against empty-vector plants

With “Chlorophyll a-b binding protein (Q0PWS7) (from UniProt Q0PWS7)” the binding was “binds”.

These are yes or no findings as the source states them, for the method shown. Binding seen in cells or lysates may run through a third protein. These calls come from enrichment with a bait or labelling near it, and not all partners need be listed.
